PubChem BioAssay AID1259308 – NCATS | 2017
In all, the deposit lists about 59,000 reagents; shown is an unselected part. About 1,510 of them (2.6%) count as active. 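Calls use total luciferase alone and ignore viability, so some active siRNAs may act by altering cell number.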 A number with no mark means an inactive call. Further read-outs or replicates are left out here. Reagent sequences are not shown.

- Purpose: 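Genes whose loss raises luciferase production in HEK293 cells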 (primary screen)
- Cells: human HEK293 embryonic kidney cells stably expressing firefly luciferase (HEK-CMV-Luc2-Hygro)
- Reagent: single siRNA against human genes, 0.8 pmol siRNA per well
- Duration: 72 h
- Measurement: 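Luciferase light (ONE-Glo) measured on one replicate plate set and viability (CellTiter-Glo) on the other, scaled to a negative control siRNA, with robust z-scores and luciferase per cell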
- Direction: total luciferase, z-score: higher = more reporter protein produced
- Active means: 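An siRNA counts as active if its total luciferase robust z-score exceeds 3; genes with two or more such siRNAs out of three were retested with fresh siRNAs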
- Calls: active = raised luciferase; inactive = no rise

For CTRC (chymotrypsin C) [SID160730690], what does the deposit list?
total luciferase, z-score: 0.397

What did the screen give for CTRC (chymotrypsin C) [SID160730698]?
total luciferase, z-score: 4.12 (active)

What did the screen give for CTRC (chymotrypsin C) [SID160730706]?
total luciferase, z-score: -0.649

For LINC00273 (long independently transcribed non-coding RNA 273) [SID160726126], what does the deposit list?
total luciferase, z-score: 0.108

What is on record for LINC00273 (long independently transcribed non-coding RNA 273) [SID160734066]?
total luciferase, z-score: -0.503

For LINC00273 (long independently transcribed non-coding RNA 273) [SID160734067], what does the deposit list?
total luciferase, z-score: 0.696

For RNLS (renalase, FAD dependent amine oxidase) [SID160743549], what was measured?
total luciferase, z-score: -1.24

With RNLS (renalase, FAD dependent amine oxidase) [SID160743550], what was measured?
total luciferase, z-score: -0.634

How did the screen score RNLS (renalase, FAD dependent amine oxidase) [SID160743551]?
total luciferase, z-score: 0.648

Which result is listed for HMGB3P22 (high mobility group box 3 pseudogene 22) [SID160734573]?
total luciferase, z-score: 0.519

For HMGB3P22 (high mobility group box 3 pseudogene 22) [SID160772932], what does the deposit list?
total luciferase, z-score: -0.606

With HMGB3P22 (high mobility group box 3 pseudogene 22) [SID160772933], how do the results read?
total luciferase, z-score: -0.0479

With DUOXA2 (dual oxidase maturation factor 2) [SID160767557], what does the deposit list?
total luciferase, z-score: 0.0462

For DUOXA2 (dual oxidase maturation factor 2) [SID160767558], how do the results read?
total luciferase, z-score: -0.858

How did the screen score DUOXA2 (dual oxidase maturation factor 2) [SID160767559]?
total luciferase, z-score: 0.345

How did the screen score TTF1 (transcription termination factor 1) [SID160718430]?
total luciferase, z-score: -0.171

Which result is listed for TTF1 (transcription termination factor 1) [SID160718431]?
total luciferase, z-score: 1.4

What did the screen give for TTF1 (transcription termination factor 1) [SID160718432]?
total luciferase, z-score: -1.01

With SRD5A1 (steroid 5 alpha-reductase 1) [SID160717317], how do the results read?
total luciferase, z-score: 0.367

With SRD5A1 (steroid 5 alpha-reductase 1) [SID160717318], what was measured?
total luciferase, z-score: -0.191

How did the screen score SRD5A1 (steroid 5 alpha-reductase 1) [SID160717319]?
total luciferase, z-score: 2.35

What did the screen give for SEPHS1 (selenophosphate synthetase 1) [SID160733721]?
total luciferase, z-score: -0.506

Which result is listed for SEPHS1 (selenophosphate synthetase 1) [SID160733730]?
total luciferase, z-score: -0.842

What did the screen give for SEPHS1 (selenophosphate synthetase 1) [SID160733738]?
total luciferase, z-score: -0.9

For PAX7 (paired box 7) [SID160713858], how do the results read?
total luciferase, z-score: 2.52

For PAX7 (paired box 7) [SID160713859], what does the deposit list?
total luciferase, z-score: -1

How did the screen score PAX7 (paired box 7) [SID160713860]?
total luciferase, z-score: 0.552

2 of these entries in another layout:
target gene | PubChem SID | total luciferase, z-score
SRD5A1 (steroid 5 alpha-reductase 1) | SID160717318 | -0.191
SRD5A1 (steroid 5 alpha-reductase 1) | SID160717319 | 2.35

More records follow.
What is on record for TBC1D3G (TBC1 domain family member 3G) [SID160734191]?
total luciferase, z-score: 1.81

Which result is listed for TBC1D3G (TBC1 domain family member 3G) [SID160771112]?
total luciferase, z-score: 1.38

What is on record for TBC1D3G (TBC1 domain family member 3G) [SID160771113]?
total luciferase, z-score: -0.417

What is on record for DMKN (dermokine) [SID160735205]?
total luciferase, z-score: 2.15

Which result is listed for DMKN (dermokine) [SID160735206]?
total luciferase, z-score: -1.13

For DMKN (dermokine) [SID160754433], what was measured?
total luciferase, z-score: -0.46

With IRAK2 (interleukin 1 receptor associated kinase 2) [SID160731144], how do the results read?
total luciferase, z-score: 1.06

Which result is listed for IRAK2 (interleukin 1 receptor associated kinase 2) [SID160775911]?
total luciferase, z-score: -0.156

For IRAK2 (interleukin 1 receptor associated kinase 2) [SID160775912], what was measured?
total luciferase, z-score: 0.39

What is on record for LINC00574 (long independently transcribed non-coding RNA 574) [SID160750025]?
total luciferase, z-score: 0.586

For LINC00574 (long independently transcribed non-coding RNA 574) [SID160750026], how do the results read?
total luciferase, z-score: -0.429

With LINC00574 (long independently transcribed non-coding RNA 574) [SID160750027], how do the results read?
total luciferase, z-score: 1.47

For RAB32 (RAB32, member RAS oncogene family) [SID160729671], what does the deposit list?
total luciferase, z-score: -1.77

What is on record for RAB32 (RAB32, member RAS oncogene family) [SID160729673]?
total luciferase, z-score: -0.911

For RAB32 (RAB32, member RAS oncogene family) [SID160730489], what was measured?
total luciferase, z-score: -1.54
